{"source": "PubChem BioAssay AID504444", "about": "(National Center for Advancing Translational Sciences (NCATS), 2011)", "note": "In all, about 360,000 compounds went through this assay and about 7,500 (2.1%) were called active. The shares of active, inactive and inconclusive entries below differ from those in the screen. The call rests on the fitted dose curve; in most records, active means well fitted inhibition curve with a large enough effect; inconclusive means small, poorly fitted or top-dose-only effect, or effect the other way; inactive means flat fitted curve, though single readings scatter. Potencies of inconclusive entries are doubtful fits and often do not repeat. Potency means the concentration at half of the fitted maximal effect."}
{"assay": "Nrf2 qHTS screen for inhibitors; further: nearly all actives have a fitted effect of over 60% in size", "conditions": "A549 ARE-Fluc reporter, luciferase luminescence, 18-24 h; series mostly up to 46 µM", "method_in_brief": "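Quantitative HTS in A549 cells stably bearing an antioxidant response element-firefly luciferase construct. Inhibition of Nrf2-driven transcription was scored by luminescence after 18-24 h of compound exposure at 37 °C.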"}
{"smiles": "Cc1ccc(C(=O)NC(c2ccco2)c2cc(Cl)c3cccnc3c2O)cc1", "note": "(stereo not drawn)", "Potency": "inconclusive: 32.6 µM [falling, single point]"}
{"smiles": "Cc1ccc(NNC(=O)C(O)(c2cccc(C(F)(F)F)c2)c2cccc(C(F)(F)F)c2)cc1", "Potency": "active: 23.1 µM"}
{"smiles": "COCCCNC(=S)N1CCN(c2ccc([N+](=O)[O-])cc2)CC1", "Potency": "inconclusive: 14.6 µM [falling, partial curve, poor fit]"}
{"smiles": "COc1ccccc1NC(=O)Cn1nc(C(F)(F)F)c2c1CCCC2", "Potency": "inactive"}
{"smiles": "Cc1cc(-c2ccc(C(C)C)c(S(=O)(=O)N3CC(=O)Nc4ccccc43)c2)on1", "Potency": "inconclusive: 29.1 µM [falling, single point]"}
{"smiles": "Cc1ccc(Cl)cc1N1CCN(CCCNC(=O)c2ccc3nc(N4CCCCC4)sc3c2)CC1", "Potency": "inconclusive: 1.46 µM [activator, partial curve]"}
{"smiles": "O=C1OCCN1C(=O)[C@H]1[C@H](c2ccccc2)C(c2ccc(F)cc2)=NN1c1ccc(Br)cc1", "Potency": "inconclusive: 32.6 µM [falling, single point]"}
{"smiles": "O=C(COC(=O)c1ccc(Cl)nc1)Nc1ccc(N2CCCCC2)cc1", "Potency": "inconclusive: 11.6 µM [activator, partial curve, poor fit]"}
{"smiles": "CC(=O)Nc1nc(C)c(-c2csc(Nc3cccc(C(C)=O)c3)n2)s1", "Potency": "inconclusive: 16.4 µM [falling, partial curve, poor fit]"}
{"smiles": "CCOC(=O)c1ccccc1NC(=O)COC(=O)C1CCN(S(=O)(=O)c2ccccc2C(=O)OC)CC1", "Potency": "inactive"}
{"smiles": "Cc1ccc(-c2ccc(SCC(=O)NCC3CCCO3)nn2)cc1", "note": "(stereo not drawn)", "Potency": "inactive"}
{"smiles": "CCOC(=O)C(C#N)(Cc1ccc2ccccc2n1)Cc1ccc2ccccc2n1", "Potency": "inconclusive: 32.6 µM [falling, single point]"}
{"smiles": "COc1ccc(-n2c(-c3ccc(Br)cc3)c[n+]3c2SC(C)C3)cc1", "note": "(stereo not drawn)", "Potency": "inactive"}
{"smiles": "Cc1ccc(S(=O)(=O)NNC(=O)C2Cc3c(ccc4ccccc34)O2)cc1", "note": "(stereo not drawn)", "Potency": "inconclusive: 29.1 µM [falling, single point]"}
{"smiles": "Clc1ccc(CO/N=C/c2c(-c3ccccc3)nc3n2CCS3)c(Cl)c1", "Potency": "inconclusive: 20.6 µM [falling, single point]"}
{"smiles": "Cc1nonc1NC(=O)CSc1nc(C23CC4CC(CC(C4)C2)C3)nc2ccccc12", "Potency": "inconclusive: 29.1 µM [falling, single point]"}
{"smiles": "CC(=O)N[C@@H](Cc1c[nH]c2ccccc12)C(=O)OCC(=O)Nc1ccc2c(c1)OCO2", "Potency": "inconclusive: 29.1 µM [activator, single point]"}
{"smiles": "CN(Cc1ccccc1)C(=O)c1nc(-c2ccc(Cl)cc2)n2c1CCCCC2", "Potency": "inconclusive: 32.6 µM [falling, partial curve, poor fit]"}
{"smiles": "CCCCOc1cccc(C(=O)N(Cc2ccc(C)o2)c2ccccn2)c1", "Potency": "active: 14.6 µM"}
{"smiles": "O=C(O)c1cccc(NC(=S)N/N=C/c2cccnc2)c1", "Potency": "inconclusive: 20.6 µM [activator, single point]"}
{"smiles": "Cc1ccc2nc(SCc3nc4ccccc4c(=O)[nH]3)[nH]c2c1", "Potency": "inconclusive: 2.91 µM [activator, partial curve, poor fit]"}
{"smiles": "CN(CC(=O)Nc1cccc(F)c1)C(=O)c1cn(-c2ccccc2)nc1-c1ccc(F)cc1", "Potency": "inactive"}
{"smiles": "CC(C)[C@H](CO)N(Cc1cccc(F)c1)c1nc(Nc2cccc(Cl)c2)c2ncn(C(C)C)c2n1", "Potency": "inconclusive: 29.1 µM [falling, single point]"}
{"smiles": "CNC(=O)c1cccc2nc3ccccc3nc12", "Potency": "active: 5.8 µM"}
{"smiles": "CCOC(=O)c1ccccc1NC(=O)CN1CCC(n2nnc3cc(F)ccc32)CC1", "Potency": "inconclusive: 32.6 µM [falling, single point]"}
{"smiles": "COc1ccc2cc3c(N)c(C(=O)NCc4ccco4)sc3nc2c1", "Potency": "inconclusive: 29.1 µM [falling, single point]"}
{"smiles": "Cc1ccc(CNC(=O)CCCN2C(=O)c3cccnc3Oc3ccc(Cl)cc32)cc1", "Potency": "inconclusive: 14.6 µM [falling, partial curve, poor fit]"}
{"smiles": "CCS(=O)(=O)N1Cc2ccccc2CC1C(=O)Nc1nc2ccc(C)cc2s1", "note": "(stereo not drawn)", "Potency": "inconclusive: 2.06 µM [activator, full curve]"}
{"smiles": "COc1cc2c(-c3ccc(O)cc3)nc3c(c(C)nn3-c3ccccc3)c2cc1OC", "Potency": "inconclusive: 23.1 µM [falling, single point]"}
{"smiles": "Cc1ccc(S(=O)(=O)n2nc(OC(=O)c3ccccc3C)cc2N)cc1", "Potency": "active: 5.8 µM"}
{"smiles": "COc1cccc(C(=O)O/N=C(\\N)c2ccccn2)c1", "Potency": "inconclusive: 1.46 µM [activator, full curve]"}
{"smiles": "CCN(CC)CCNC(=O)NC1CCCCC1", "Potency": "inconclusive: 25.9 µM [activator, single point]"}
{"smiles": "Cc1n[nH]c(=O)nc1N/N=C/c1cccs1", "Potency": "inconclusive: 8.2 µM [activator, partial curve, poor fit]"}
{"smiles": "O=C(NCc1cccnc1)/C(=C\\c1ccc(-c2ccc(Cl)c(Cl)c2)o1)S(=O)(=O)c1ccccc1", "Potency": "active: 18.4 µM"}
{"smiles": "COc1cccc(C2=NOC(C(=O)Nc3cc(C)nn3-c3ccccc3)C2)c1OC", "note": "(stereo not drawn)", "Potency": "inactive"}
{"smiles": "CCOc1ccc(NC(=O)c2cc3c(s2)-c2ccccc2OC3)cc1", "Potency": "inconclusive: 2.59 µM [falling, full curve, poor fit]"}
{"smiles": "COc1cc2c(cc1OC)C(COc1ccccc1OC)N(C(=O)C(C)(C)C)CC2", "note": "(stereo not drawn)", "Potency": "inconclusive: 20.6 µM [falling, partial curve, poor fit]"}
{"smiles": "CCC(C(=O)c1ccc(O)cc1)c1ccccc1", "note": "(stereo not drawn)", "Potency": "inconclusive: 32.6 µM [falling, single point]"}
{"smiles": "COc1ccc(NC(=O)c2ccc3c(=O)n(-c4ccc(OC)cc4OC)c(=S)[nH]c3c2)cc1", "Potency": "inactive"}
{"smiles": "Cc1ccc(-n2c(SCC(=O)NCc3cccs3)nnc2-c2ccoc2C)cc1", "Potency": "inconclusive: 18.4 µM [activator, partial curve, poor fit]"}
{"smiles": "Cc1ccc(C)c(N(C(=O)c2snc(C(N)=O)c2N)C(C(=O)NCC2CCCO2)c2ccc(C)o2)c1", "note": "(stereo not drawn)", "Potency": "inactive"}
{"smiles": "CCOC(=O)N1CCN(C(=O)c2cc(COc3c(F)cccc3F)on2)CC1", "Potency": "inconclusive: 3.26 µM [activator, partial curve]"}
{"smiles": "N#Cc1nc(Nc2ccccc2)nc(NC2CCCCC2)n1", "Potency": "inconclusive: 23.1 µM [falling, single point]"}
{"smiles": "CCCN(CC(=O)Nc1ccc(F)c(F)c1F)C(=O)C1CC(=O)N(Cc2ccccc2)C1", "note": "(stereo not drawn)", "Potency": "inactive"}
{"smiles": "COc1ccc(-c2noc(CCCC(=O)NC3CCCC3)n2)cc1", "Potency": "active: 11.6 µM"}
{"smiles": "CCCn1ccc2c(OCC(=O)Nc3ccc(NC(C)=O)cc3)cccc2c1=O", "Potency": "inactive"}
{"smiles": "COCCN(C(=O)COC(=O)/C=C/c1ccc(SC)cc1)c1c(N)n(Cc2ccccc2)c(=O)[nH]c1=O", "Potency": "inactive"}
{"smiles": "O=C1CN(C(=O)COC(=O)c2cc(S(=O)(=O)N3CCOCC3)ccc2Cl)c2ccccc2N1", "Potency": "inconclusive: 32.6 µM [falling, single point]"}
{"smiles": "CCCCN(CC)Cc1c(O)ccc2c3c(c(=O)oc12)CCC3", "Potency": "inactive"}
{"smiles": "O=C1C(=O)c2ccccc2C(O)=C1CC=C(Cl)Cl", "Potency": "inactive"}
{"smiles": "COc1ccc(/C=C/C(=O)N2CCN(c3ccccc3)CC2)cc1S(=O)(=O)N1CCOCC1", "Potency": "active: 13 µM"}
{"smiles": "CCOC(=O)c1cc2c(=O)n3ccccc3nc2n(CC(C)C)c1=NC(=O)c1ccco1", "Potency": "inactive"}
{"smiles": "Cc1nc(Nc2ccc(C(=O)O)cc2)sc1-c1ccccc1", "Potency": "inconclusive: 29.1 µM [activator, partial curve, poor fit]"}
{"smiles": "CC(C)C(=O)Nc1ccc(NC(=O)c2ccco2)cn1", "Potency": "inconclusive: 0.92 µM [activator, partial curve]"}
{"smiles": "Cc1cc(Sc2nnc(/N=C/N(C)C)s2)c2ccccc2n1", "Potency": "active: 7.31 µM"}
{"smiles": "COc1ccc(NC(=O)c2sc3nc(-c4cccnc4)ccc3c2N)cc1", "Potency": "inconclusive: 10.3 µM [falling, partial curve, poor fit]"}
{"smiles": "COc1ccc(NC(=O)c2ccc3ccccc3n2)cc1S(=O)(=O)N1CCCCC1", "Potency": "inconclusive: 2.91 µM [activator, partial curve, poor fit]"}
{"smiles": "Cc1cccc(-c2nc(CSCC(=O)N3CCN(c4ccccc4)CC3)c(C)o2)c1", "Potency": "active: 23.1 µM"}
{"smiles": "Nc1nc2ccccc2n1CCOc1ccccc1Cl", "Potency": "inconclusive: 20.6 µM [falling, partial curve, poor fit]"}
{"smiles": "O=C(c1ccc2oc(CCCc3ccccc3)nc2c1)N1CCCC1", "Potency": "inconclusive: 4.61 µM [activator, full curve]"}
{"smiles": "Cc1ccc(C(=O)CNc2cccc(Cl)c2)cc1", "Potency": "inconclusive: 18.4 µM [activator, partial curve, poor fit]"}
{"smiles": "CCN(CC)C(=O)C(=O)Nc1cccc(Br)c1", "Potency": "inconclusive: 13 µM [activator, partial curve, poor fit]"}
{"smiles": "CCN(CC)C(=O)Oc1ccc2ccccc2c1Br", "Potency": "inconclusive: 14.6 µM [activator, partial curve]"}
{"smiles": "COc1ccc(Nc2nc(N3CCCC3)nc3ccccc23)c(OC)c1", "Potency": "inconclusive: 16.4 µM [falling, partial curve, poor fit]"}
{"smiles": "COc1ccc(-n2nc(C(=O)NCC(=O)N3CCCCCC3)c3ccccc3c2=O)cc1", "Potency": "inactive"}
{"smiles": "COc1ccc(CCNc2ncnc3[nH]ncc23)cc1OC", "Potency": "inconclusive: 29.1 µM [falling, single point]"}
{"smiles": "O=C1CC(/C=C/c2cccnc2)=Nc2ccccc2N1", "Potency": "inconclusive: 23.1 µM [activator, single point]"}
{"smiles": "CCOC(=O)c1ccc(NC(=O)CSc2nccn2-c2ccc(OCC)cc2)cc1", "Potency": "inactive"}
